TcHisRS: 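Enzyme assay of histidyl-tRNA synthetase; the read-out is not stated. Target: Histidine-tRNA ligase, Trypanosoma cruzi CL Brener (UniProt Q4DA54). Tested at 30 µM. Direction is inferred from retests: higher values go with stronger inhibition. About 69,000 compounds were tested under these conditions; 0.045% (about 31) showed 50% or more at least once.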
PfKRS1: 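Lysine-tRNA ligase, Plasmodium falciparum 3D7 (UniProt Q8IDJ8). Enzyme assay of the cytosolic lysyl-tRNA synthetase in 384-well plates, read by luminescence. Concentration: 30 µM. Higher reads as stronger inhibition, judged from the few compounds that gave an IC50. Of about 69,000 compounds tested this way, about 49 (0.071%) reached 50% or more in at least one test.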

Sequences of proteins named here, by UniProt entry; tags and fusion partners are left off. Residues count along the entry.
UniProt Q4DA54, 1-478: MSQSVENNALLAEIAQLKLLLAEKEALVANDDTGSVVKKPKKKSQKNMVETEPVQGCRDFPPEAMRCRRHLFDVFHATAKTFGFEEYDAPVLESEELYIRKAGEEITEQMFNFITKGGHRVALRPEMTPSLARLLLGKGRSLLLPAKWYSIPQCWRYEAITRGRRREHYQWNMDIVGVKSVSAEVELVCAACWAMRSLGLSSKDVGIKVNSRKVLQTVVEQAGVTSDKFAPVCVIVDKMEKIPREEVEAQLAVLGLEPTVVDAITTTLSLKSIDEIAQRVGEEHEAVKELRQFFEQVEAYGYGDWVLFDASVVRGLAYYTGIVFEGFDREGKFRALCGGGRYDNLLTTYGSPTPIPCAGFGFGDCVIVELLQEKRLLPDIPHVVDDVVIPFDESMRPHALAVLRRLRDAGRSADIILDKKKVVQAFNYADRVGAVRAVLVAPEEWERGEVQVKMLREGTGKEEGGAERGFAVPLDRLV
UniProt Q8IDJ8, 1-583: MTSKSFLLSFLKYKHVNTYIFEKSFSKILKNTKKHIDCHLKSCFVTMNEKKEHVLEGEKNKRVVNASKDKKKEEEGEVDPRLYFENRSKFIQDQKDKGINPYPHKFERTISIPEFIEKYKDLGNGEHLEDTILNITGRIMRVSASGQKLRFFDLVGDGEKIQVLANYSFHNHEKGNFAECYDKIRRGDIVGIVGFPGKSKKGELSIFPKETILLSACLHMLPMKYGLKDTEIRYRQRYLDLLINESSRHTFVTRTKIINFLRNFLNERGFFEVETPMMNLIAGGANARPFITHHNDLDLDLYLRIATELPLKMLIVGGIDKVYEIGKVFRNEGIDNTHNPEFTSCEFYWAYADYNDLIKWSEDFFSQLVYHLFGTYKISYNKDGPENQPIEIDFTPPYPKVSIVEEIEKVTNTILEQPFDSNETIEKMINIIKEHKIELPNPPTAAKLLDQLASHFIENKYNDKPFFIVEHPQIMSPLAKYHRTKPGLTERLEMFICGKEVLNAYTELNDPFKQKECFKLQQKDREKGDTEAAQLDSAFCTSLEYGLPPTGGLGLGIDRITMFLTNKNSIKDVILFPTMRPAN

Each number is a percent effect as filed.
The record does not define 0% and 100%; most values in the screen are far below 50% and negative numbers occur (in some assays of this library far below -100).
The compounds are a random part of those screened.

| # | structure | TcHisRS | PfKRS1 |
|---|---|---|---|
| 1 | `O=C(Nc1ccccc1OCC(F)F)N[C@@H]1C=C[C@H](CO)C1` | 2.02 | 4.829 |
| 2 | `O=C1NCCCCC1Sc1nnc(N2CCCC2)n1C1CC1` (configuration not stated) | -1.97 | 3.497 |
| 3 | `c1ccc(-c2nc(CN3CCn4c(nnc4C4CC4)C3)cs2)cc1` | 5.833 | 0.5952 |
| 4 | `CN(C)C(=O)Cc1nc(CN2CCn3c(nnc3C3CC3)C2)cs1` | -1.149 | 1.644 |
| 5 | `CC(C)n1cnnc1C1CCCN(S(=O)(=O)c2c[nH]cn2)C1` (configuration not stated) | 1.84 | -5.061 |
| 6 | `COc1ccc(C(=O)NCCCOC(C)c2ccccc2)c(OC)c1` (configuration not stated) | -1 | 1.109 |
| 7 | `Cn1nccc1-c1nnn2c1COC(CNCc1nccs1)C2` (configuration not stated) | -0.8 | 4.839 |
| 8 | `O=c1[nH]c(-c2ccc(F)c(F)c2)nc2c1CCNC2` | 0.5236 | 1.834 |
| 9 | `Cc1csc(CN2CC(CO)Oc3ccccc32)n1` (configuration not stated) | -1.571 | -1.616 |
| 10 | `CCc1nc(C2CCCN2C(=O)c2ccc(=O)n(CC)n2)no1` (configuration not stated) | -0.9804 | -2.768 |
| 11 | `COc1ccc(C)cc1C(=O)N1CCCC(n2cncn2)C1` (configuration not stated) | 0.8547 | -1.46 |
| 12 | `CC(=O)N1C[C@H]2CCCC(N3CCN(c4ncccn4)CC3)[C@H]2C1` (some centres not stated) | 7.843 | 6.962 |
| 13 | `CCn1cc(-c2nn3c(C(F)(F)F)nnc3s2)cn1` | 0 | 0.2746 |
| 14 | `COc1cccc(CN2CCCC3(CCN(C(=O)N4CCCC4)C3)C2)c1` (configuration not stated) | 12.02 | 5.823 |
| 15 | `COCCCC1CCCCN1Cc1cnn(C)c1C1CC1` (configuration not stated) | 2.89 | 0.02292 |
| 16 | `CCC(=O)NC(CC(C)C)c1cccs1` (configuration not stated) | 2.674 | 1.051 |
| 17 | `CS(=O)(=O)Cc1nc(CNc2c(F)cc(F)cc2F)cs1` | 1.093 | 6.298 |
| 18 | `CC(=O)Nc1ccc(CN2C[C@H]3CC[C@@H]2CN(c2ncccn2)C3)cc1` | -0.8696 | 3.664 |
| 19 | `Cc1cc(C)n(NC(=O)c2ccc(Cl)cc2Cl)c(=O)c1` | 4.624 | 3.845 |
| 20 | `Cc1ccc(-n2cc(C(=O)N3CCCC(n4cccn4)C3)nn2)cc1` (configuration not stated) | 5.983 | -1.206 |
| 21 | `Cc1cc(N2CCCC(O)(CN(C)C)CC2)nc(-c2ccccc2)n1` (configuration not stated) | 3.784 | 0.251 |
| 22 | `Cc1nc2ccccc2nc1CN(C)C1CCCN(c2cccnn2)C1` (configuration not stated) | 2.521 | 1.54 |
| 23 | `COCCSCC(=O)NCc1ccc(N(C)C)nc1` | 2.128 | 6.036 |
| 24 | `COc1ccccc1-c1ncc(CN2CCCC[C@H](N(C)C)C2)s1` | -6.667 | -2.135 |
| 25 | `COCc1cc(CN(C)C(=O)CCC(=O)Nc2cc(C)ccc2F)n[nH]1` | 8.235 | -1.645 |
| 26 | `COc1cc(NC(=O)c2ccc(C)cc2C)c(C(=O)N(C)C)cc1OC` | 5 | 7.068 |
| 27 | `O=C(O)CCCc1ccc2c(c1)CC(=O)N2` | 8.021 | -3.357 |
| 28 | `CCc1nc(C)c(C(=O)NCCN2CCN(C(C)=O)CC2)s1` | 2.662 | 2.636 |
| 29 | `COCCN(C)C(C(=O)O)c1ccc(F)c(Cl)c1` (configuration not stated) | -4.386 | -1.287 |
| 30 | `CN(C)C[C@@H]1CN(C(=O)CCC2CCCC2)C[C@@H]1CO` | 4.036 | 5.816 |
| 31 | `COc1ccc(Oc2ccc(CNC(=O)C(C)n3cncn3)cn2)cc1` (configuration not stated) | 7.882 | 7.092 |
| 32 | `CN(Cc1cccc(-n2cccn2)c1)c1cc(N2CCCC2)nc(N)n1` | 12.85 | 8.315 |
| 33 | `CC(NC(=O)NCCCn1cncn1)c1ccc(F)cc1` (configuration not stated) | 10.79 | 3.525 |
| 34 | `O=C(NCCN1CCCc2ccccc21)c1scnc1Cl` | 1.515 | -0.7421 |
| 35 | `O=C(c1ccc(F)cc1)N1C[C@@H]2CN(c3ncccn3)C[C@@H]2C1` | 6.897 | 10.46 |
| 36 | `COc1ccc(C(=O)N2CCOC(Cc3cccc(C(F)(F)F)c3)C2)o1` (configuration not stated) | 0 | 0.7285 |
| 37 | `CC(=O)Nc1nc(C(=O)N2CCCC(n3ccnc3C)C2)cs1` (configuration not stated) | 2.89 | 0.2778 |
| 38 | `Cc1ncc(CC(=O)N2CCCCC2CCN2CCCC2)c(=O)[nH]1` (configuration not stated) | 10.71 | 2.437 |
| 39 | `O=C1NCC(C(=O)Nc2ncc(Cc3ccc(F)cc3)s2)N1` (configuration not stated) | 1.433 | 0 |
| 40 | `CN(Cc1cccc(OC(F)(F)F)c1)C(=O)Cc1ccon1` | 5.172 | 1.849 |
| 41 | `CNC(=O)NC(=O)CSC(C)c1ccccc1F` (configuration not stated) | 9.195 | 2.646 |
| 42 | `Cc1cc(C)n(CC2CCCN2CC(=O)N(C)Cc2ccc(C)o2)n1` (configuration not stated) | 9.593 | -1.207 |
| 43 | `CCN(CC)c1ncc(Cl)c(C(=O)NC2CCC(O)CC2)n1` (configuration not stated) | 2.299 | 4.906 |
| 44 | `Cc1nc2c(c(=O)n1C)CCN(C(=O)CCc1ccccn1)CC2` | 1.087 | 3.025 |
| 45 | `CC(C)S(=O)(=O)C(C)C(=O)NCc1cccc(N2CCCCC2=O)c1` (configuration not stated) | -7.563 | 4.895 |
| 46 | `CCC(C)NC(=O)c1ccn(COc2ccccc2Cl)n1` (configuration not stated) | 0.4425 | 6.508 |
| 47 | `Cn1c(=O)n(C)c2nc(Cl)c(CC(=O)c3ccc(F)cc3)n2c1=O` | 6.931 | 1.281 |
| 48 | `CCc1nccn1CCCn1ccnc1-c1[nH]cnc1C` | 6.341 | 1.627 |
| 49 | `CCn1nc(C)c2c1cnn2CCNS(C)(=O)=O` | 4.911 | 4.075 |
| 50 | `O=C(C[S+]([O-])Cc1csc(C2CCCC2)n1)NC1CCCC1` (configuration not stated) | 0 | 3.128 |
| 51 | `Cc1c(COC(C)C)cccc1NC(=O)N1CCC(N2CCCC2)C1` (configuration not stated) | 11.67 | 7.487 |
| 52 | `COCCn1ccnc1C1CCN(C(=O)CSc2nnc(C)o2)CC1` | 0.8929 | 1.335 |
| 53 | `O=C(NCCn1nc2ccccn2c1=O)c1sccc1-c1ccccc1` | 9.621 | 0.1112 |
| 54 | `Nc1cc(CCC2CN(Cc3cccc(C(=O)O)c3)CCO2)ccn1` (configuration not stated) | 8.791 | 1.408 |
| 55 | `CCOc1ccc(C(=O)NC2CCN(c3ncccn3)CC2)cc1C` | 10.3 | 2.599 |
| 56 | `Cn1cc(-c2ncc3c(c2C(=O)O)CCN(Cc2ccco2)C3)cn1` | 11.11 | 4.93 |
| 57 | `CSCCCn1ccnc1-c1cccc(C#N)c1` | 0 | -3.389 |
| 58 | `O=C1CCC2(CCCN(c3ncnc4[nH]cnc34)C2)CN1CCCO` (configuration not stated) | 1.19 | 2.174 |
| 59 | `CCOc1ncnc2c1CCN(C(=O)NCc1cccnc1)CC2` | -4.372 | -1.899 |
| 60 | `c1ccc2c(c1)CCN(c1nc(N3CCOCC3)c3nn[nH]c3n1)C2` | 2.591 | 2.139 |
| 61 | `Cc1ccc(NC(=O)C2CSCN2C(=O)c2cc[nH]n2)c(C)c1` (configuration not stated) | 0.7634 | 3.235 |
| 62 | `CS(=O)(=O)Nc1cccc(CNC(=O)CCNC(=O)c2cccs2)c1` | 8.442 | 10.12 |
| 63 | `CN(CC(N)=O)Cc1cc(Cl)cc2cccnc12` | 10.34 | 5.457 |
| 64 | `CCn1c(C(=O)N2CCN(C(=O)NC(C)C)CC2)cc2ccccc21` | 2.29 | -3.304 |
| 65 | `CCc1noc(CN2CCN(C(=O)N(C)C)CC2)n1` | 3.008 | -3.638 |
| 66 | `CSc1ccc(CN(CCO)C(=O)CCc2cccc(F)c2)cc1` | 3.659 | -0.5531 |
| 67 | `COC(C)C(=O)Nc1cc(C(=O)N2CCSCC2)ccc1C` (configuration not stated) | 1.961 | 1.288 |
| 68 | `CCS(=O)(=O)N1CCCC2(CCCC(=O)N2C)C1` (configuration not stated) | 7.767 | 6.654 |
| 69 | `CC(=O)N[C@@H]1CN(C(=O)c2ccncc2)C[C@H]1c1ccc(C)cc1` | 3.804 | 7.161 |
| 70 | `CC(C)N1CCC(CC(=O)NC(C(=O)O)c2ccc(F)cc2)CC1` (configuration not stated) | 4.082 | 4.909 |
| 71 | `O=c1c(NCc2ccco2)c(NCC(O)CN2CCOCC2)c1=O` (configuration not stated) | 2.924 | 2.134 |
| 72 | `CCCn1ncc(C(=O)N2CCC(N3CCCCC3)CC2)c1C` | 2.186 | 7.799 |
| 73 | `Cc1cc(C[C@@H]2COC[C@@H]2NC(=O)CN2CCc3ccccc3C2)on1` | 10.99 | -1.007 |
| 74 | `COc1ccccc1OCCC(=O)NC1CCc2nc(C)cn2C1` (configuration not stated) | 3.333 | 5.97 |
| 75 | `CN(CC(=O)NC(c1ccc(F)cc1)C(F)(F)F)S(C)(=O)=O` (configuration not stated) | 1.538 | 5.662 |
| 76 | `CC(C)CN1C(=O)CO[C@@H]2CN(C(=O)C3CCOCC3)C[C@H]21` | -172.4 | 0.2786 |
| 77 | `CCCn1nnnc1CN1Cc2ccccc2CC1c1nnc(C)o1` (configuration not stated) | 1.657 | 1.096 |
| 78 | `Cc1ccnc(NC(=O)c2cccc(OCc3nnnn3C)c2)c1` | 11.88 | 1.098 |
| 79 | `O=C(CN1CCOc2ccccc2C1)NCc1cc2n(n1)CCCNC2` | 6.077 | 1.892 |
| 80 | `CCc1nc2c(s1)C(N(C)C(C)=O)CCC2` (configuration not stated) | 6.667 | 1.872 |
| 81 | `Cn1cnc2cc(C(=O)NS(=O)(=O)CC3CCCC3)ccc21` | 6.077 | -5.079 |

For reference, 6 entries once more:

structure,TcHisRS,PfKRS1
O=C(NCCn1nc2ccccn2c1=O)c1sccc1-c1ccccc1,9.621,0.1112
CN(CC(=O)NC(c1ccc(F)cc1)C(F)(F)F)S(C)(=O)=O (configuration not stated),1.538,5.662
CC(C)n1cnnc1C1CCCN(S(=O)(=O)c2c[nH]cn2)C1 (configuration not stated),1.84,-5.061
COc1ccc(Oc2ccc(CNC(=O)C(C)n3cncn3)cn2)cc1 (configuration not stated),7.882,7.092
CC(C)S(=O)(=O)C(C)C(=O)NCc1cccc(N2CCCCC2=O)c1 (configuration not stated),-7.563,4.895
Cc1cc(C)n(CC2CCCN2CC(=O)N(C)Cc2ccc(C)o2)n1 (configuration not stated),9.593,-1.207

Source: ChEMBL document CHEMBL3988442, “University of Dundee, Small-Polar-MMV Screening Library” (2021).